Results are given in words; binding and its absence hold for the method and conditions named. Tags and fused reporters may be left off the sequences shown.

This experiment deals with His-tagged BmCBP(ZEA): Carotenoid-Binding Protein from Bombyx mori, residues 68-297, zeaxanthin-bound holoform (Bombyx mori) (UniProt Q8MYA9). In words: SEC-SAXS.

B1: His-tagged BmCBP(ZEA): Carotenoid-Binding Protein from Bombyx mori, residues 68-297, zeaxanthin-bound holoform (domain or fragment, UniProt Q8MYA9 68-297)
chain: SIDEYKSQANESMANAWRIITLPNWTVEKRGTVRGDVVESRKVEGFGKVYRFTGVVNCPARFLYEEFKNNLTKLPEWNPTILKCEIIKEIGDGVDLSYQVTAGGGRGIITPRDFVILRRTALLSREGRVVDDNPHGYISSGVSVQVPGYPPLKEMVRGHNKVGCWYLQPRTVQTPGGKIEDQALFQWLMCCDLKGKIPQFVLDVAFATVMLDYIVHVRKFVAEAKARAEI
With B1, the binding entry was “no binding (tested: 13 mg/ml)”.

Values taken from paper doi:10.1101/2022.06.28.497953.
